Measurements: PubChem BioAssay AID192 (DTP/NCI, 2004)
The list shows only some results of the screen, not a fair sample: it gathers tests that were run many times, whatever their T/C, doses with no T/C, and many T/C values between a quarter and a half above the control. Further doses and runs are listed elsewhere. T/C gives the treated animals as a percentage of the vehicle group. Some doses have a count of surviving animals in place of a T/C: the source files T/C as zero there, which appears to mark a toxic dose or a test without result, not a measured value. Some survivor counts are full or nearly so, which does not show that the dose was tolerated: the source hardly ever lists a survival T/C far under the control, and the zero likely stands for such cases as well. Counts of survivors are from the toxicity check (mostly the fifth day) where no day follows; animals may have died later. Schedule codes are those of the source, taken here to give the interval after Q, in days (D) or hours (H), and the number of doses after X. Counts like (3×) stand for listed records that agree. Some entries were tested several times; the values are given in rising order. For survival time, the PubChem record calls one and a half times the control and up active, and a quarter to a half above the control has no call in these data; cut-offs in other NCI protocols can differ. Some T/C values are followed by the survivors on the day toxicity was checked, most often the fifth; without a count, all were alive then. Peptide text beside a SMILES is read from it. * marks the point of attachment. CH2Cl = ClC*

Tested on: BDF1 mice, B16 melanoma ip, median survival T/C
Test: NCI In Vivo Anticancer Drug Screen. Data for tumor model B16 Melanoma (intraperitoneal) in B6D2F1 (BDF1) mice
Details: T/C endpoint: median survival time, higher T/C = longer survival
Summary of the method: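 Each result divides a survival or tumor-size measurement in the compound-treated group by the same measurement in the vehicle group.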

[1] = dose: 12.5 mg/kg/injection, schedule: Q01DX009 (ip), vehicle: saline with Tween-80
[2] = dose: 12.5 mg/kg/injection, schedule: Q01DX009 (ip), vehicle: saline
[3] = dose: 50.0 mg/kg/injection, schedule: Q01DX009 (ip), vehicle: saline with Tween-80
[4] = dose: 50.0 mg/kg/injection, schedule: Q01DX009 (ip), vehicle: Klucel (hydroxypropylcellulose) (HPC)
[5] = dose: 100.0 mg/kg/injection, schedule: Q01DX009 (ip), vehicle: Klucel (hydroxypropylcellulose) (HPC)
[6] = dose: 200.0 mg/kg/injection, schedule: Q01DX009 (ip), vehicle: Klucel (hydroxypropylcellulose) (HPC)
[7] = dose: 12.5 mg/kg/injection, schedule: Q01DX009 (ip), vehicle: Klucel (hydroxypropylcellulose) (HPC)
[8] = dose: 25.0 mg/kg/injection, schedule: Q01DX009 (ip), vehicle: Klucel (hydroxypropylcellulose) (HPC)

For C[C@]12C=CC(=O)C=C1CC[C@@H]1[C@@H]2[C@@H](O)C[C@@]2(C)[C@H]1CC[C@]2(O)C(=O)CO, the survivor count (dose: 40.0 mg/kg/injection, schedule: Q02DX009 (ip), vehicle: Klucel (hydroxypropylcellulose) (HPC)) was 10 of 10, the survivor count (dose: 80.0 mg/kg/injection, schedule: Q02DX009 (ip), vehicle: Klucel (hydroxypropylcellulose) (HPC)) was 10 of 10 and the survivor count (dose: 640.0 mg/kg/injection, schedule: Q02DX009 (ip), vehicle: Klucel (hydroxypropylcellulose) (HPC)) was 10 of 10.
With CCc1ncnc2cc(OCC3CO3)c(OC)cc12 (centres undefined) the T/C (dose: 6.25 mg/kg/injection, schedule: Q01DX009 (ip), vehicle: saline) was 128 % of control, the T/C [1] was 128 % of control and the T/C [2] was 143 % of control. For the same compound, the T/C (dose: 25.0 mg/kg/injection, schedule: Q01DX009 (ip), vehicle: saline with Tween-80) was 149 % of control, the T/C (dose: 40.0 mg/kg/injection, schedule: Q04DX003 (ip), vehicle: other) was 125 % of control and the survivor count [3] was 10 of 10. The T/C (dose: 50.0 mg/kg/injection, schedule: Q01DX009 (ip), vehicle: saline) was 143 % of control, the T/C (dose: 80.0 mg/kg/injection, schedule: Q04DX003 (ip), vehicle: other) was 145 % of control [9 of 10 alive on day 10] and the survivor count (dose: 100.0 mg/kg/injection, schedule: Q01DX009 (ip), vehicle: saline with Tween-80) was 7 of 10. The survivor count (dose: 100.0 mg/kg/injection, schedule: Q01DX009 (ip), vehicle: saline) was 10 of 10.
CC(C)C1OC(=O)/C=C/C=C/C=C/C=C/C=C/CC(O)C(C)C(O)CC(O)CC(O)CC(O)CC(O)CC(O)CC(O)/C=C/C1C (centres undefined) was tested, and the survivor count [2] was 9 of 10 and the survivor count (dose: 25.0 mg/kg/injection, schedule: Q01DX009 (ip), vehicle: saline) was 0 of 10.
In the case of CCCCC1CCCCCCc2[nH]c(/C=C3\N=C(c4ccc[nH]4)C=C3OC)cc21 (centres undefined), the survivor count (dose: 1000.0 micrograms/kg/injection, schedule: Q01DX009 (ip), vehicle: saline with Tween-80) is reported as 10 of 10 and the survivor count (dose: 2000.0 micrograms/kg/injection, schedule: Q01DX009 (ip), vehicle: saline with Tween-80) is reported as 8 of 10.
For CC(C(=O)O)C(=O)O.[NH2-].[NH2-].[Pt+2], the T/C (dose: 6.25 mg/kg/injection, schedule: Q01DX009 (ip), vehicle: Klucel (hydroxypropylcellulose) (HPC)) was 129 % of control, the survivor count [4] was 10 of 10 and the survivor count [5] was 4 of 10. The survivor count [6] was 1 of 10.
N/C(CCSc1ccccc1N=Cc1ccccc1O)=N/O was tested, and the survivor count (dose: 3.13 mg/kg/injection, schedule: Q01DX009 (ip), vehicle: olive oil, sesame oil, peanut oil) was 9 of 10 and 10 of 10, the survivor count (dose: 6.25 mg/kg/injection, schedule: Q01DX009 (ip), vehicle: olive oil, sesame oil, peanut oil) was 10 of 10 (2×) and the survivor count (dose: 12.5 mg/kg/injection, schedule: Q01DX009 (ip), vehicle: olive oil, sesame oil, peanut oil) was 9 of 10 (2×). The survivor count (dose: 25.0 mg/kg/injection, schedule: Q01DX009 (ip), vehicle: olive oil, sesame oil, peanut oil) was 10 of 10 (2×), the survivor count (dose: 50.0 mg/kg/injection, schedule: Q01DX009 (ip), vehicle: olive oil, sesame oil, peanut oil) was 8 of 10 and 10 of 10 and the survivor count (dose: 100.0 mg/kg/injection, schedule: Q01DX009 (ip), vehicle: olive oil, sesame oil, peanut oil) was 0 of 10 and 4 of 10.
For CC(=O)Nc1ccc(CCCCc2cccc(C(=N)N)c2)cc1, the survivor count (dose: 37.5 mg/kg/injection, schedule: Q04DX003 (ip), vehicle: saline with Tween-80) was 10 of 10, the survivor count [3] was 1 of 10 and the survivor count (dose: 75.0 mg/kg/injection, schedule: Q04DX003 (ip), vehicle: saline with Tween-80) was 8 of 10.
For Nc1ccc(OCc2ccccc2)cc1, the survivor count (dose: 6.25 mg/kg/injection, schedule: Q01DX009 (ip), vehicle: saline with Tween-80) was 10 of 10 and the survivor count [1] was 10 of 10.
For CCCCC(=O)N(c1ccc(Nc2c3ccccc3nc3cc([N+](=O)[O-])ccc23)cc1)S(C)(=O)=O, the T/C (dose: 7.5 mg/kg/injection, schedule: Q01DX009 (ip), vehicle: saline with Tween-80) was 141 % of control, the T/C (dose: 25.0 mg/kg/injection, schedule: Q01DX001 (ip), vehicle: saline with Tween-80) was 127 % of control and the survivor count (dose: 30.0 mg/kg/injection, schedule: Q01DX009 (ip), vehicle: saline with Tween-80) was 6 of 6. The T/C (dose: 50.0 mg/kg/injection, schedule: Q01DX001 (ip), vehicle: saline with Tween-80) was 144 % of control and the survivor count (dose: 100.0 mg/kg/injection, schedule: Q01DX001 (ip), vehicle: saline with Tween-80) was 4 of 6.
For CC1=CC(=Nc2ccc(N(CCCl)CCCl)cc2)C=C(C)C1=O, the T/C [7] was 131 % of control, the survivor count [7] was 10 of 10 and the T/C [8] was 136 and 136 % of control [9 of 10 alive]. For the same compound, the T/C [4] was 128 and 130 % of control, the survivor count [4] was 10 of 10 and the survivor count [5] was 9 of 10.
In the case of CC(=O)NC(CC(C)C)C(=O)NC(Cc1ccccc1)C(=O)CCl (stereo not drawn) (Ac-Leu-Phe-CH2Cl; configuration not given here), the survivor count [7] is reported as 10 of 10 and the survivor count [8] is reported as 10 of 10.
Cn1cnc([N+](=O)[O-])c1S(=O)(=O)NCN1CCOCC1 was tested, and the survivor count [6] was 4 of 10 and the survivor count (dose: 400.0 mg/kg/injection, schedule: Q01DX009 (ip), vehicle: Klucel (hydroxypropylcellulose) (HPC)) was 0 of 10.
Cc1[nH]c(=O)[nH]c(=O)c1N(CCF)CCCl was tested, and the T/C (dose: 5.0 mg/kg/injection, schedule: Q01DX009 (ip), vehicle: saline with Tween-80) was 125 % of control, the T/C (dose: 8.0 mg/kg/injection, schedule: Q01DX009 (ip), vehicle: saline with Tween-80) was 131 % of control and the T/C (dose: 8.4 mg/kg/injection, schedule: Q01DX009 (ip), vehicle: saline with Tween-80) was 140 % of control. For the same compound, the T/C (dose: 10.0 mg/kg/injection, schedule: Q01DX009 (ip), vehicle: Klucel (hydroxypropylcellulose) (HPC)) was 135 % of control, the T/C (dose: 16.0 mg/kg/injection, schedule: Q01DX009 (ip), vehicle: acid diluted with saline) was 125 % of control and the survivor count (dose: 20.0 mg/kg/injection, schedule: Q01DX009 (ip), vehicle: Klucel (hydroxypropylcellulose) (HPC)) was 6 of 6. For the same compound, the survivor count (dose: 23.0 mg/kg/injection, schedule: Q01DX009 (ip), vehicle: saline with Tween-80) was 10 of 10, the survivor count (dose: 32.0 mg/kg/injection, schedule: Q01DX009 (ip), vehicle: acid diluted with saline) was 8 of 10 and the survivor count (dose: 32.0 mg/kg/injection, schedule: Q01DX009 (ip), vehicle: saline with Tween-80) was 10 of 10. The survivor count (dose: 39.0 mg/kg/injection, schedule: Q01DX009 (ip), vehicle: saline with Tween-80) was 6 of 10, the survivor count (dose: 40.0 mg/kg/injection, schedule: Q01DX009 (ip), vehicle: Klucel (hydroxypropylcellulose) (HPC)) was 6 of 6 and the survivor count (dose: 64.0 mg/kg/injection, schedule: Q01DX009 (ip), vehicle: acid diluted with saline) was 4 of 10. For the same compound, the survivor count (dose: 64.0 mg/kg/injection, schedule: Q01DX009 (ip), vehicle: saline with Tween-80) was 1 of 10, the survivor count (dose: 64.0 mg/kg/injection, schedule: Q04DX003 (ip), vehicle: acid diluted with saline) was 9 of 10 and the survivor count (dose: 64.0 mg/kg/injection, schedule: Q04DX003 (ip), vehicle: saline with Tween-80) was 5 of 10. The survivor count (dose: 80.0 mg/kg/injection, schedule: Q01DX009 (ip), vehicle: Klucel (hydroxypropylcellulose) (HPC)) was 2 of 6, the survivor count (dose: 128.0 mg/kg/injection, schedule: Q01DX009 (ip), vehicle: acid diluted with saline) was 0 of 10 and the survivor count (dose: 128.0 mg/kg/injection, schedule: Q01DX009 (ip), vehicle: saline with Tween-80) was 0 of 10. The survivor count (dose: 128.0 mg/kg/injection, schedule: Q04DX003 (ip), vehicle: acid diluted with saline) was 10 of 10, the survivor count (dose: 128.0 mg/kg/injection, schedule: Q04DX003 (ip), vehicle: saline with Tween-80) was 0 of 10 and the survivor count (dose: 256.0 mg/kg/injection, schedule: Q04DX003 (ip), vehicle: acid diluted with saline) was 7 of 10. The survivor count (dose: 256.0 mg/kg/injection, schedule: Q04DX003 (ip), vehicle: saline with Tween-80) was 0 of 10.
